Data published in PubChem BioAssay AID328 (DTP/NCI, 2004).
The list is a part of this screen's results and no random one: its compounds were picked by chemical class. Not every dose and run of a compound is shown. T/C gives the treated animals as a percentage of the vehicle group. For survival time, the PubChem record calls one and a half times the control and up active, and a quarter to a half above the control has no call in these data; cut-offs in other NCI protocols can differ. Some T/C values are marked as having no survivor count here; that says nothing about deaths at the dose. Schedule codes are those of the source, read here as Q, the interval in days (D) or hours (H), X, the number of doses. Some entries were tested several times; the results are listed from low to high. Some complexes appear as separate parts, the way the source draws them; their charges need not add up.

Tested on: BDF1 mice, P388 leukemia ip, median survival T/C
Assay: NCI In Vivo Anticancer Drug Screen. Data for tumor model P388 Leukemia (intraperitoneal) in B6D2F1 (BDF1) mice
Conditions: T/C endpoint: median survival time, higher T/C = longer survival
Method: The antitumor activity of compounds was measured in mice bearing transplantable tumors. Survival or tumor size were measured and the results are expressed as the measurement made in the treated group (T) divided by the measurement made in the vehicle treated control group (C). The tumor model used in this assay is P388 Leukemia (intraperitoneal) in B6D2F1 (BDF1) mice

[1] = dose: 1.56 mg/kg/injection, schedule: Q01DX009 (ip), vehicle: water
[2] = dose: 6.25 mg/kg/injection, schedule: Q01DX009 (ip), vehicle: water
[3] = dose: 12.5 mg/kg/injection, schedule: Q01DX009 (ip), vehicle: water

`CN(CCCl)CCCl.CN(CCCl)CCCl.[Cl][Pt+2][Cl]` was tested, and the T/C [1] was 166 % of control [survivor count not shown], the T/C (dose: 3.13 mg/kg/injection, schedule: Q01DX009 (ip), vehicle: water) was 185 % of control [survivor count not shown] and the T/C [2] was 201 % of control [survivor count not shown]. The T/C [3] was 245 % of control [survivor count not shown] and the T/C (dose: 25.0 mg/kg/injection, schedule: Q01DX009 (ip), vehicle: water) was 245 % of control [survivor count not shown].

With `CN(CCCl)CCCl` the T/C (dose: 0.06 mg/kg/injection, schedule: Q01DX010 (ip), vehicle: saline) was 90 % of control [survivor count not shown], the T/C (dose: 0.12 mg/kg/injection, schedule: Q01DX010 (ip), vehicle: saline) was 110 % of control [survivor count not shown] and the T/C (dose: 0.13 mg/kg/injection, schedule: Q01DX010 (ip), vehicle: saline) was 200 [survivor count not shown] and 203 % of control [survivor count not shown]. For the same compound, the T/C (dose: 0.25 mg/kg/injection, schedule: Q01DX010 (ip), vehicle: saline) was 115 [survivor count not shown], 200 [survivor count not shown], 300 % of control [survivor count not shown], the T/C (dose: 0.3 mg/kg/injection, schedule: Q04DX003 (ip), vehicle: saline) was 175 % of control [survivor count not shown] and the T/C (dose: 0.43 mg/kg/injection, schedule: Q04DX003 (ip), vehicle: saline) was 221 % of control [survivor count not shown]. The T/C (dose: 0.5 mg/kg/injection, schedule: Q01DX010 (ip), vehicle: saline) was 118 [survivor count not shown], 130 [survivor count not shown], 138 % of control [survivor count not shown], the T/C (dose: 0.6 mg/kg/injection, schedule: Q04DX003 (ip), vehicle: saline) was 190 % of control [survivor count not shown] and the T/C (dose: 0.72 mg/kg/injection, schedule: Q04DX003 (ip), vehicle: saline) was 221 % of control [survivor count not shown]. For the same compound, the T/C (dose: 1.2 mg/kg/injection, schedule: Q04DX003 (ip), vehicle: saline) was 117 % of control [survivor count not shown], the T/C (dose: 1.25 mg/kg/injection, schedule: Q04DX003 (ip), vehicle: saline) was 225 % of control [survivor count not shown] and the T/C (dose: 2.5 mg/kg/injection, schedule: Q04DX003 (ip), vehicle: saline) was 155 % of control [survivor count not shown]. For the same compound, the T/C (dose: 389.0 micrograms/kg/injection, schedule: Q04DX003 (ip), vehicle: saline) was 172 % of control [survivor count not shown], the T/C (dose: 648.0 micrograms/kg/injection, schedule: Q04DX003 (ip), vehicle: saline) was 127 % of control [survivor count not shown] and the T/C (dose: 1080.0 micrograms/kg/injection, schedule: Q04DX003 (ip), vehicle: saline) was 200 % of control [survivor count not shown]. The T/C (dose: 1800.0 micrograms/kg/injection, schedule: Q04DX003 (ip), vehicle: saline) was 227 % of control [survivor count not shown].

`CN(CCCl)CCCl.CN(CCCl)CCCl.[Cl][Cu][Cl]` was tested, and the T/C [1] was 104 % of control [survivor count not shown], the T/C (dose: 3.12 mg/kg/injection, schedule: Q01DX009 (ip), vehicle: water) was 104 [survivor count not shown] and 110 % of control [survivor count not shown] and the T/C [2] was 118 [survivor count not shown] and 124 % of control [survivor count not shown]. For the same compound, the T/C [3] was 127 [survivor count not shown] and 146 % of control [survivor count not shown] and the T/C (dose: 20.0 mg/kg/injection, schedule: Q01DX009 (ip), vehicle: water) was 128 % of control [survivor count not shown].
